# PubChem BioAssay AID1259425, University of Nebraska Medical Center, 2018
# Assay: 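Seek colon cancer weak points whose silencing resembles KSR1 loss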 (primary screen)
# Cells: HCT116 human colon cancer cells
# Knock-down reagent: siRNA pool against human genes, 50 nM siRNA
# Read-out: 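mRNA of six signature genes measured together by branched-DNA assay after 50 nM siRNA pool, blank removed, divided by geometric mean of two housekeeping genes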
# Scale: BNIP3L mRNA: higher = more BNIP3L transcript after knockdown; NDRG1 mRNA: higher = more NDRG1 transcript after knockdown; BNIP3 mRNA: higher = more BNIP3 transcript after knockdown; ALDOC mRNA: higher = more ALDOC transcript after knockdown; ACSL5 mRNA: higher = more ACSL5 transcript after knockdown
# The whole screen tested about 14,000 reagents; this is a random part of them. The record does not give: the time to read-out.
Target gene,"BNIP3L mRNA, set 1","NDRG1 mRNA, set 1","BNIP3 mRNA, set 1","ALDOC mRNA, set 1","ACSL5 mRNA, set 1"
ANK2 (ankyrin 2),0.0436,0.207,0.265,0.014,0.149
HSD17B14 (hydroxysteroid 17-beta dehydrogenase 14),0.172,0.154,0.442,0.0631,0.108
ABCG4 (ATP binding cassette subfamily G member 4),0.208,0.265,0.259,0.0276,0.214
RAI1 (retinoic acid induced 1),0.0696,0.154,0.236,0.0153,0.159
ZDHHC20 (zDHHC palmitoyltransferase 20),0.111,0.0932,0.262,0.0237,0.104
GNPDA1 (glucosamine-6-phosphate deaminase 1),0.116,0.459,0.334,0.041,0.394
SIPA1 (signal-induced proliferation-associated 1),0.0879,0.114,0.241,0.00669,0.159
COPZ2 (coat protein complex I subunit zeta 2),0.247,0.32,0.324,0.0217,0.368
HAGH (hydroxyacylglutathione hydrolase),0.0793,0.257,0.194,0.0398,0.156
KCNK4 (potassium two pore domain channel subfamily K member 4),0.129,0.239,0.299,0.0139,0.286
KRT38 (keratin 38),0.0878,0.0832,0.139,0.019,0.104
"POLR1HASP (POLR1H antisense, pseudogene)",0.0701,0.135,0.269,0.0165,0.0961
DMXL1 (Dmx like 1),0.165,0.0991,0.204,0.0193,0.0635
TMEM106C (transmembrane protein 106C),0.0661,0.062,0.166,0.0297,0.2
KRTAP4-1 (keratin associated protein 4-1),0.236,0.749,0.282,0.0417,0.211
DUS3L (dihydrouridine synthase 3 like),2.54,1.62,3.87,0.949,0.207
TNFRSF11B (TNF receptor superfamily member 11b),0.124,0.195,0.355,0.0979,0.204
CNN1 (calponin 1),0.0662,0.0877,0.316,0.0247,0.0917
MTNR1B (melatonin receptor 1B),0.119,0.218,0.393,0.0575,0.351
MOG (myelin oligodendrocyte glycoprotein),0.096,0.443,0.167,0.0317,0.198

A few values from the list.
ANK2 (ankyrin 2), ACSL5 mRNA, set 1 = 0.149
KRT38 (keratin 38), BNIP3 mRNA, set 1: 0.139
Value for KRTAP4-1 (keratin associated protein 4-1) in “BNIP3L mRNA, set 1”: 0.236

The listing continues.
Target gene,"BNIP3L mRNA, set 1","NDRG1 mRNA, set 1","BNIP3 mRNA, set 1","ALDOC mRNA, set 1","ACSL5 mRNA, set 1"
OTUD4 (OTU deubiquitinase 4),0.0482,0.128,0.238,0.0185,0.108
SERTAD2 (SERTA domain containing 2),0.0614,0.0978,0.224,0.0092,0.0793
EPB42 (erythrocyte membrane protein band 4.2),0.0513,0.111,0.265,0.0354,0.152
KIF1A (kinesin family member 1A),0.0508,0.0922,0.247,0.0211,0.281
CST3 (cystatin C),0.123,0.311,0.243,0.0188,0.289
CUL5 (cullin 5),0.126,0.164,0.355,0.033,0.146
PIP5K1B (phosphatidylinositol-4-phosphate 5-kinase type 1 beta),0.0891,0.15,0.294,0.0372,0.164
DCX (doublecortin),0.25,0.677,0.284,0.0298,0.111
RBAK (RB associated KRAB zinc finger),0.185,0.136,0.409,0.0281,0.166
YTHDF2 (YTH N6-methyladenosine RNA binding protein F2),0.185,0.123,0.367,0.0599,0.178
GDF1 (growth differentiation factor 1),0.112,0.412,0.449,0.0133,0.291
TIMM8B (translocase of inner mitochondrial membrane 8 homolog B),0.124,0.692,0.348,0.0194,0.227
WDR25 (WD repeat domain 25),0.0957,0.369,0.341,0.0539,0.436
HAGHL (hydroxyacylglutathione hydrolase like),0.102,0.205,0.267,0.0168,0.127
UCP2 (uncoupling protein 2),0.173,0.199,0.512,0.0412,0.147
BHLHE22 (basic helix-loop-helix family member e22),0.124,0.357,0.375,0.0267,0.184
GPR17 (G protein-coupled receptor 17),0.0891,0.0738,0.304,0.0127,0.124
RAD23B (RAD23 nucleotide excision repair protein B),0.124,0.473,0.347,0.0208,0.2
FANCA (FA complementation group A),0.0737,0.497,0.286,0.0329,0.153
GLYR1 (glyoxylate reductase 1 homolog),0.0881,0.103,0.196,0.043,0.0837
GJA1 (gap junction protein alpha 1),0.117,0.133,0.275,0.0307,0.104
MAZ (MYC associated zinc finger protein),0.131,0.161,0.235,0.0261,0.155
KCNB1 (potassium voltage-gated channel subfamily B member 1),0.148,0.134,0.209,0.0622,0.112
DYNC1LI1 (dynein cytoplasmic 1 light intermediate chain 1),0.119,0.0898,0.301,0.0351,0.172
GPR83 (G protein-coupled receptor 83),0.246,0.378,0.343,0.0312,0.274
ZNF177 (zinc finger protein 177),0.182,0.326,0.333,0.0573,0.149
FLRT1 (fibronectin leucine rich transmembrane protein 1),0.0804,0.307,0.342,0.0338,0.213
KRABD4 (KRAB domain containing 4),0.0755,0.314,0.543,0.0135,0.215
NCDN (neurochondrin),0.157,0.179,0.378,0.0196,0.169
DGKI (diacylglycerol kinase iota),0.19,0.499,0.473,0.0207,0.179
